Data from patent publication US20250388687A1.
No constants are given. Whether binding was seen depends on the method and setting. Some binding calls cover weakened binding; strength is not graded here.

Sequences of proteins named here, by UniProt entry; tags and fusion partners are left off. Residues count along the entry.
UniProt P32927, residues 17-443: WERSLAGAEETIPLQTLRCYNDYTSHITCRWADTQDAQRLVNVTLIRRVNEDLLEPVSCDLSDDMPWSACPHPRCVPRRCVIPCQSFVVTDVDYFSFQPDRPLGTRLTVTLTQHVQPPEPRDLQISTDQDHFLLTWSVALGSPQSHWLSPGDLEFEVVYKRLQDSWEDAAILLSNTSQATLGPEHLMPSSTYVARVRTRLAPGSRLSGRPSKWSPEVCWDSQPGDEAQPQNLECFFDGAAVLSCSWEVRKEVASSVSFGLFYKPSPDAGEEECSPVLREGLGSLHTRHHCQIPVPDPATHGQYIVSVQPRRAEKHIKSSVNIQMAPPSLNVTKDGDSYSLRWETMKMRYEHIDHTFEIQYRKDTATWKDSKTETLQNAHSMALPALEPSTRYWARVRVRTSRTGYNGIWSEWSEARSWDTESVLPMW

What was measured:
[1] = molecular target: hCD131-Fc (IME021) (human) (UniProt P32927); assay: B cells sorted with labelled hEPOR-Fc and hCD131-Fc, then sequenced
[2] = molecular target: hCD131-Fc (IME021, in house) (human) (UniProt P32927); assay: B-cell sort with labelled hEPOR-Fc and hCD131-Fc

binding [1] | binding [2] | Binder
binds |  | EPOR/CD131 binder, HC SEQ ID NO 1730 / LC SEQ ID NO 1866 (antibody, V domains shown) VH: EVQLVESGGGLVKPGGSLRLSCAASGFTFSSYSMNWVRQAPGKGLEWVSSISSSSSYIYYADSVKGRFTISRDNAKNSLYLQMNSLRAEDTAVYYCARDYRPYYDILTGYSHFDYWGQGTLVTVSS VL: SSELTQDPAVSVALGQTVRITCQGDSLRSYYASWYQQKPGQAPVLVIYGKNNRPSGIPDRFSGSSSGNTASLTITGAQAEDEADYYCNSRDSSGNHVVFGGGTKLTVL
binds |  | EPOR/CD131 binder, HC SEQ ID NO 1735 / LC SEQ ID NO 1871 (antibody, V domains shown) VH: QVQLQQWGAGLLKPSETLSLTCAVYGGSFSGYYWSWIRQPPGKGLEWIGEINHSGNTNYNPSLKSRVTISVDTSKNQFSLKLSSVTAADTAVYYCARGELGIGYWYFDLWGRGTLVTVSS VL: SSELTQDPAVSVALGQTVRITCQGDSLRSYYASWYQQKPGQAPVLVIYGKNNRPSGIPDRFSGSSSGNTASLTITGAQAEDEADYYCNSRDSSGNHVVFGGGTKLTVL
binds |  | EPOR/CD131 binder, HC SEQ ID NO 1729 / LC SEQ ID NO 1865 (antibody, V domains shown) VH: QVQLVQSGAEVKKPGASVKVSCKASGYIFSNYGICWVRQAPGQGLEWMGWINPYNVNRNYAQSLQGRVTMTTDTSTNSAYMELRSLKSDDTAVYFCARGVWGSYRSHSYYTFMDVWGKGTTVTVSS VL: SYELTQPSSVSVSPGQAARITCSGNLLAKKYPRWFLQKPGQAPIMLTHTDCERPSGIPERFSGSSSGTTVTLTISGAQVEDEADYYCFSAADNTSVFDGGTNLTVL
binds |  | EPOR/CD131 binder, HC SEQ ID NO 1734 / LC SEQ ID NO 1870 (antibody, V domains shown) VH: QLQLQESGPGLVKPSETLALTCTVSGGSISSIIYYWGWIRQPPGKGLEWIGNVYYSGSIYYNPSLKSRVTISVDTSKNQFSLKLSSVTAADTAVYYCARQNWGSDAFDIWGQGTMVTVSS VL: SYELTQPLSLSVALGQTARITCGENNIGSRNVHWYQQKPGQAPVLVIYRDSDRPSGIPERFSGSNSGNTATLTISRAQAGDEADYFCQVWDSSTAVFGGGTKLTVL
binds |  | EPOR/CD131 binder, HC SEQ ID NO 1728 / LC SEQ ID NO 1864 (antibody, V domains shown) VH: QVQLQQWGAGLLKPSETLSLTCAVYGGFLRGYYWSWIRQPPGKGLEWIGEINHSGSTNYNPSLKSRVTISVDTAENQFSLKLNSVTAADTAVYYCAREGLTGHTFDIWGQGTMVTVSS VL: QSALTQPASVSGSPGQSITISCTGTSSDVGGYNYVSWYQQHPGKAPKLMIYDVSKRPSGVSNRFSGSKSGNTASLTISGLQAEDEADYYCCSYAGSSTVVFGGGTKLTVL
binds |  | EPOR/CD131 binder, HC SEQ ID NO 1738 / LC SEQ ID NO 1874 (antibody, V domains shown) VH: QVQLVQSGAEVKKPGASVKVSCKASGYTFITYGISWVRQAPGQGLEWMGWISSYNGNTNYAQKLQGRVTMTRDTSTSTAYMELRSLRSDDTAVYYCARAPGGDCSSTSCYKWNYDPYYFDYWGQGTLVTVSS VL: QSALTQPASVSGSPGQSITISCTGTSSDVGGYNHVSWYQQNPGKAPKLMIYDVSKRPSGVSNRFSGSKSGNTASLTISGLQAEDEADYYCCSYAGSSTLVFGGGTKLTVL
binds |  | EPOR/CD131 binder, HC SEQ ID NO 1732 / LC SEQ ID NO 1868 (antibody, V domains shown) VH: QMQLQESGPGLVRPSETLSLTCTVSGGSISTRSYYWGWIRQPPGKGLEWIGSVFYSGSTYYNPSLKSRVAISVDTSKNQFSLKVNSVTAADTAVFYCVRQGYDSWTGYSFFYFDYWGQGTLVTVSS VL: QSALTQPPSASGSPGQSVTISCTGTSSDVGGYNYVSWYQQHPGKAPKLMIYEVSKRPSGVPDRFSGSKSGNTASLTVSGLQAEDEADYYCSSYAGSNNLVFGGGTKLTVL
binds |  | EPOR/CD131 binder, HC SEQ ID NO 1727 / LC SEQ ID NO 1863 (antibody, V domains shown) VH: QVQLQQWGAGLLKPSETLSLTCAVYGGSFSGHYWNWIRQPPGKGLEWIGEINHSGFTNYNPSLKSRVTISVDTPKNQFPLNLSSVTAADTAVYYCAREGLTGHVFDIWGQGTMVTVSS VL: QTVVTQEPSLTVSPGGTVTLTCASSTGAVTSGYYPNWFQQKPGQAPRALIYSTSNKHSWTPARFSGSLLGGKAALTLSGVQPEDEAEYYCLLYYGGAQVFGGGTKLTVL
binds |  | EPOR/CD131 binder, HC SEQ ID NO 1724 / LC SEQ ID NO 1860 (antibody, V domains shown) VH: EVQLVESGGGLVQPGGSLRLSCAASGFTFSSYWMSWVRQAPGKGLEWVANIKQDGSEKYYVDSVKGRFTISRDNAKNSLYLQMNSLRAEDTAVYYCARTPGYSSSWYEGPYFDYWGQGTLVTVSS VL: SYELTQPPSVSVSPGQTARITCSGDALPKKYAYWYQQKSGQAPVLVIYEDSKRPSGIPERFSGSSSGTMATLTISGAQVEDEADYYCYSTDSSGNHVVFGGGTKLTVL
binds |  | EPOR/CD131 binder, HC SEQ ID NO 1731 / LC SEQ ID NO 1867 (antibody, V domains shown) VH: QVQLVQSGAEVKKPGASVKVSCKASGFTFTSYYIHWVRQAPGQGLEWMGIITPSGGTTSYAQKFQGRVTMTRDTSTSTVYMELSSLRSEDTAVYYCARRVLWFGELRDYFYYMDVWGKGTTVTISS VL: SYELTQPPSVSVSPGQTARITCSGDALPKKYAYWFQQKSGQAPVLVIYEDSKRPSGIPERFSGSSSGTMATLIISGAQVEDEADYYCYSTDSSGNHVVFGGGTKLTVL

Second part, the binder before the results:

Binder | binding [1] | binding [2]
EPOR/CD131 binder, HC SEQ ID NO 1704 / LC SEQ ID NO 1840 (antibody, V domains shown) VH: EVQLVESGGGLVQPGGSLRLSCAASGFTFSSYWMSWVRQAPGKGLEWVANIKQDGSEKYYVDSVKGRFTISRDNAKNSLYLQMNSLRAEDTAVYYCARDDTIFGVVTDAFDIWGQGTMVTVSS VL: SSELTQDPAVSVALGQTVRITCQGDSLRSYYASWYQQKPGQAPVLVIYGKNNRPSGIPDRFSGSSSGNTASLTITGAQAEDEADYYCNSRDSSGNLFGGGTKLTVL | binds | 
EPOR/CD131 binder, HC SEQ ID NO 1710 / LC SEQ ID NO 1846 (antibody, V domains shown) VH: EVQLVESGGGLVQPGGSLRLSCAASGFTFSSYSMNWVRQAPGKGLEWVSYISSSSSTIYYADSVKGRFTISRDNAKNSLYLQMNSLRDEDTAVYYCARTYYYGSGSYYTLDYWGQGTLVTVSS VL: QSVLTQPPSVSGAPGQRVTISCTGSSSNIGAGYDVHWYQQLPGTAPKLLIYGNSNRPSGVPDRFSGSKSGTSASLAITGLQAEDEADYYCQSYDSSLSGVVFGGGTKLTVL | binds | 
EPOR/CD131 binder, HC SEQ ID NO 1706 / LC SEQ ID NO 1842 (antibody, V domains shown) VH: EVQLVESGGGLVKPGGSLRLSCAASGFTFSTYSMNWVRQAPGKGLEWVSSISSSSTYIYYADSVKGRFTISRDNAKNSLYLQMNSLRADDTAVYYCARDPPLSGSYAGEFDYWGQGTLVTVSS VL: SSELTQDPAVSVALGQTVRITCQGDSLRSYYASWYQQKPGQAPVLVIYGKNNRPSGIPDRFSGSSSGNTASLTITGAQAEDEADYYCNSRDSSGNHWVFGGGTKLTVL | binds | 
EPOR/CD131 binder, HC SEQ ID NO 1713 / LC SEQ ID NO 1849 (antibody, V domains shown) VH: EVQLVESGGGLVQPGGSLRLSCAASGFTFSSYWMSWVRQAPGKGLEWVANIKQDGSEKYYVDSVKGRFTISRDNAKNSLYLQMNSLRAEDTAVYYCAREGVLWFGEFYYYMDVWGKGTTVTVSS VL: SSELTQDPAVSVALGQTVRITCQGDSLRRYYASWYQQKPGQAPVLVIYGKNNRPSGIPDRFSGSSSGNTASLTITGAQAEDEADYYCNSRDSSGNHLVFGGGTKLTVL | binds | 
EPOR/CD131 binder, HC SEQ ID NO 1717 / LC SEQ ID NO 1853 (antibody, V domains shown) VH: EVQLVESGGGLVKPGGSLRLSCAASGFTFRNAWMSWVRQAPGKGLEWVGRIKTKTDGGATQYAAPVKGRFTISRDDSKNTLYLQMNSLKTEDTAVYYCTTDHIEYSSLYYFDYWGQGTLVTVSS VL: QSVLTQSPSASGTPGQRVTISCSGSNSNIGFNTVNWYQQLPGTAPKLLIDSNNQRPSGVPDRFSGSTSGTSASLAISGLQSEDEADYYCSSYAGSNNFVFGTGTKVTVL | binds | 
EPOR/CD131 binder, HC SEQ ID NO 1711 / LC SEQ ID NO 1847 (antibody, V domains shown) VH: QVQLVQSGAEVKKPGASVKVSCKASGYTFTSYDINWVRQATGQGLEWMGWMNPNSGNTGYAQKFQGRVTMTRNTSISTAYMELSSLRSEDTAVYYCARGGITIFGVVTPFDYWGQGTLVTVSS VL: QAVLTQPASLSASPGASASLTCTLRSGINVGTYRIYWYQQKPGSPPQYLLRYKSDSDKQQGSGVPSRFSGSKDASANAGILLISGLQSEDEADYYCMIWHSSAWVFGGGTKLTVL | binds | 
EPOR/CD131 binder clonotype 14 (antibody, V domains shown) VH: QLQLQESGPGLVKPSETLSLTCTVSGGSISSSSYYWGWIRQPPGKGLEWIGSIYYSGSTYYNPSLKSRVTISVDTSKNQFSLKLSSVTAADTAVYYCARQTDYWFDPWGQGTLVTVSS VL: QSALTQPASVSGSPGQSITISCTGTSSDVGGYNYVSWYQQHPGKAPKLMIYDVSKRPSGVSNRFSGSKSGNTASLTISGLQAEDEADYYCCSYAGSSTLVFGGGTKLTVL |  | binds
EPOR/CD131 binder, HC SEQ ID NO 1718 / LC SEQ ID NO 1854 (antibody, V domains shown) VH: QVQLVQSGAEVKKPGASVKVSCKASGYTFTSYGISWVRQAPGQGLEWMGWISAYNGNTNYAQKLQGRVTMTTDTSTSTAYMELRSLRSDDTAVYYCARQLAYCGGDCYLYFDYWGQGTLVTVSS VL: QSALTQPPSASGSPGQSVTISCTGTSSDVGGYNYVSWYQQHPGKAPKLMIYEVSKRPSGVPDRFSGSKSGNTASLTVSGLQAEDEADYYCSSYAGSNNLVFGGGTKLTVL | binds | 
EPOR/CD131 binder, HC SEQ ID NO 1719 / LC SEQ ID NO 1855 (antibody, V domains shown) VH: QVQLQQSGPGLVKPSQTLSLTCAISGDSVSSNSAAWNWIRQSPSRGLEWLGRTYYRSKWYNDYAVSVKSRITINPDTSKNQFSLQLNSVTPEDTAVYYCAREAYWNYGGFDYWGQGTLVTVSS VL: QSALTQPPSASGSPGQSVTISCTGTSSDVGGYNYVSWYQQHPGKAPKLMIYEVSKRPSGVPDRFSGSKSGNTASLTVSGLQAEDEADYYCSSYAGSNNFGVFGGGTKLTVL | binds | 
EPOR/CD131 binder, HC SEQ ID NO 1716 / LC SEQ ID NO 1852 (antibody, V domains shown) VH: QVHLVESGGGVVQPGRSLRLSCAASGFTFSSYGMHWVRQAPGKGLEWVAIIWYDGSNEYYADSVKGRFTISRDNSKNTLYLQMNTLRAEDTAVYYCAGAYYYDSSGYLNYMDVWGKGTTVTVSS VL: SYVLIQPPSVSVAPGKTARITCGGNNIGGKSVHWYQLKPGQAPVLVICYNRDRPSGIPERFSGSNSGNTATLTISRVEAGDEADYYCQVWDSSSDHPVFGGGTKLTVL | binds | 
EPOR/CD131 binder, HC SEQ ID NO 1720 / LC SEQ ID NO 1856 (antibody, V domains shown) VH: EVQLVESGGGLVKPGGSLKLSCAASGFTFSSYSMNWVRQAPGKGLEWVSSISSSSSYIYYADSVKGRFTISRDNAKNSLYLQMNSLRAEDTAVYYCARDGRITMVRGVRNWFDPWGQGTLVTVSS VL: SYELTQPPSVSVSPGQTANITCSGDKLGNKYACWYQQKPGQSPVLVIFQDNKRPSGIPERFSGSNSGNTATLTIGGTQAMDEADYYCQAWDSSTVVFGGGTKVTVL | binds | 
